Holding throughout (test): DAPPL (digital affinity profiling via proximity ligation, sequencing)
Details in all cases: 10 mM Tris-HCl pH 7.5, 50 mM NaCl, 1 mM DTT, 4% glycerol, room temperature, 30 min; GST-TFs on glutathione beads, 16-mer random dsDNA library, 0.1% …; high values mean tight binding; double strand, one strand shown; scale: fold enrichment (6-mer frequency, TF over GST control)

Sequences of proteins named here, by UniProt entry; tags and fusion partners are left off. A change or cut given only in a name is not applied to a line headed by its entry.
UniProt P50549: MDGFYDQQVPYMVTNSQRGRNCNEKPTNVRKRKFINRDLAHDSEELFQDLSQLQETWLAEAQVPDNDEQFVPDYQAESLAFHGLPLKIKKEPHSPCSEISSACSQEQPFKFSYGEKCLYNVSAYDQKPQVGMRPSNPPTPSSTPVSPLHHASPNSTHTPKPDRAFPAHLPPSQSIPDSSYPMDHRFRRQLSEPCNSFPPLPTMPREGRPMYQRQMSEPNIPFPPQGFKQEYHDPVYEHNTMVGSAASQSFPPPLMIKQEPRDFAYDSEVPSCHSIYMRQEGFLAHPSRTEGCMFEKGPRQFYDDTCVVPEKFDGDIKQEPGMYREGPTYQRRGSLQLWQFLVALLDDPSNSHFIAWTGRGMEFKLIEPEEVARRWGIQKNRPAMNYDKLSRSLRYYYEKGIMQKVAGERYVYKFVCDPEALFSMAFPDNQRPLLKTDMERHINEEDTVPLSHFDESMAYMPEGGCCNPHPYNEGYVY
UniProt P32519: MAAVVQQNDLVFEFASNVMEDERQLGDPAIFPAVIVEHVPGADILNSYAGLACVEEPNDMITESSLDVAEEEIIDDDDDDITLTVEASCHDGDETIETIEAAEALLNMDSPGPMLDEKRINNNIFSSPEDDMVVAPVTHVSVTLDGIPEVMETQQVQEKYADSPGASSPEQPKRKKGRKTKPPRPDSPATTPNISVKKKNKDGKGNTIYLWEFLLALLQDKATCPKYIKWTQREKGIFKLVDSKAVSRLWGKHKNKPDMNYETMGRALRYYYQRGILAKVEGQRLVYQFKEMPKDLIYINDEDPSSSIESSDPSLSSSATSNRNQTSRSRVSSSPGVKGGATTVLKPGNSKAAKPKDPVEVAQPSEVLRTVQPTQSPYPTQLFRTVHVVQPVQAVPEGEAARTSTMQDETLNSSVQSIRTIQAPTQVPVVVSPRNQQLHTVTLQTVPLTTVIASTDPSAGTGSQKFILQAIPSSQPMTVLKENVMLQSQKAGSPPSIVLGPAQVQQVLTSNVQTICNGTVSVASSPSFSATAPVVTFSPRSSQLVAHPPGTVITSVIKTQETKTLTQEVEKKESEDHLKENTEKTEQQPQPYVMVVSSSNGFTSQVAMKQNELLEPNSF

In one assay the target is T1, ERG (UniProt P11308).
T1 sequence: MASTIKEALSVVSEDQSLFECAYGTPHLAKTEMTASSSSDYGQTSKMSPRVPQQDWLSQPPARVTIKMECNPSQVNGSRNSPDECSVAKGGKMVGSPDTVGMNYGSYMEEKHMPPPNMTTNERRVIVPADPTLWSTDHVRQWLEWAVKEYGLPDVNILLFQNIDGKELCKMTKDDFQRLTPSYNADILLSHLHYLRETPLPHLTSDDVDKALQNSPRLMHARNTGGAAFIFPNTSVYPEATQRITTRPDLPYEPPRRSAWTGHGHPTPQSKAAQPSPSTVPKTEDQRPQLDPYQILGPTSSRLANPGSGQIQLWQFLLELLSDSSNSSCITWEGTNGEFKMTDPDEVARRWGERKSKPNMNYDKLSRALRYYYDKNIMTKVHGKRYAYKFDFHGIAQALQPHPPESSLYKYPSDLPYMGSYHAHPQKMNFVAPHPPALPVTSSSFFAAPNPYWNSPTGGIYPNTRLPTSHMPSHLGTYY

The target of a further assay is T2, ETV4 (UniProt P43268).
T2 sequence: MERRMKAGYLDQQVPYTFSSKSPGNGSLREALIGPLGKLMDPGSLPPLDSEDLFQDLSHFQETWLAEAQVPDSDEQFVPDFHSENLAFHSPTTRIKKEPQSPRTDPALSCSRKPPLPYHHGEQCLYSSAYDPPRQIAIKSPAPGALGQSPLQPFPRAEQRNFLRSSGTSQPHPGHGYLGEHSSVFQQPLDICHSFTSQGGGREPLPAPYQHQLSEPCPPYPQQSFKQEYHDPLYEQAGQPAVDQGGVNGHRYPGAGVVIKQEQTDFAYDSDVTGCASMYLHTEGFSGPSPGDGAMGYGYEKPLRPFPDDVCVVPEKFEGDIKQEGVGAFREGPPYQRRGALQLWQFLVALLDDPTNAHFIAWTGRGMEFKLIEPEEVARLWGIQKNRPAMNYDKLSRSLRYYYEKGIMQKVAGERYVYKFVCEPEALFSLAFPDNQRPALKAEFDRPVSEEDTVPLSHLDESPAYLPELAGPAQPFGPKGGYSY

In the next assay the target is ETV1 (UniProt P50549).
For a further assay, the target named is T3, ERF (UniProt P50548).
T3 sequence: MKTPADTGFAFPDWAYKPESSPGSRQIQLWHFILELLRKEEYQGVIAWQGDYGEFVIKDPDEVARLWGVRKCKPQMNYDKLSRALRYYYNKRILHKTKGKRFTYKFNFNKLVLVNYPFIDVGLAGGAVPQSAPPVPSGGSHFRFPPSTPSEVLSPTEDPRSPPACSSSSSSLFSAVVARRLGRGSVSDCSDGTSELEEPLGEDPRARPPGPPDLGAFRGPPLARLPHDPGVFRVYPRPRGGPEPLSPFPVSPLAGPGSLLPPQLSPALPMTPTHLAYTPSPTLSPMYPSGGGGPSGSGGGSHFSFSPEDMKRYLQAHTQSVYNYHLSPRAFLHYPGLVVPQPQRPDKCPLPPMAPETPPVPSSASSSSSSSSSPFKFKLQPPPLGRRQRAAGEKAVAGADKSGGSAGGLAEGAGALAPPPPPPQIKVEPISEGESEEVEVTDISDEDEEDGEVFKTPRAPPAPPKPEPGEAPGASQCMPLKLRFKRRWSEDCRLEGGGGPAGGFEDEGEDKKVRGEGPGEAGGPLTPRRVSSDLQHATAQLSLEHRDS

For the next assay, the target named is ELF1 (UniProt P32519).

Only a part is listed here, and it is no random draw. For some of these results: At the low end of the ranking the order means little. The list shows a part of the results. For some of these results: Construct or isoform of the protein are uncertain.

Turning to CGACGG, the binding signal with ERG was found to be 0.998; in the assay with ETV4, 0.945; in the assay with ETV1, 0.992; with ERF, 0.965.

As to CCATAG, the binding signal amounted to 0.853 with ERG; 0.911 with ELF1; 0.921 in the assay with ETV4; 0.88 in the assay with ETV1; 0.971 with ERF.

On to ATAGGT, for which the binding signal in the assay with ERG was 1.01; in the assay with ELF1, 0.974; in the assay with ETV4, 0.975; with ETV1 it was 1.03; in the assay with ERF, 0.972.

For the sequence AGAAGA, the binding signal in the assay with ERG turned out to be 0.862; in the assay with ELF1, 0.947; with ETV4, 0.961; with ETV1, 0.952; with ERF, 0.922.

For the sequence TGGGCA, the binding signal came to 0.976 with ERG, 1.02 with ETV4, 0.908 with ETV1 and 0.942 in the assay with ERF.

For the sequence ATAGAC, the binding signal with ERG stood at 0.958; in the assay with ETV4, 0.94; with ETV1 it was 0.993; with ERF, 0.952.

For the sequence ATGTGG, the binding signal with ERG is 1.21; with ETV4 it was 1.22; in the assay with ETV1, 1.12.

As to TAATGG, the binding signal came to 1.22 with ERG, 1.29 with ETV4, 1.45 in the assay with ETV1 and 1.17 with ERF.

As for TGATCA, the values for the binding signal in the assay with ERG, with ETV4 and with ETV1 were 0.982, 1.03 and 0.997, respectively.

Take TGGTGA: the binding signal is 0.884 in the assay with ERG; 0.985 with ELF1; 0.923 with ETV4; 0.968 in the assay with ETV1; 0.955 with ERF.

ATGCTG: the binding signal with ERG amounted to 0.949; with ETV4, 1.01; with ETV1, 1.06; in the assay with ERF, 1.16.

With GTAATC, the binding signal amounted to 1.08 with ERG, 1.16 with ETV4, 1.02 with ETV1 and 1.08 in the assay with ERF.

For the sequence CTTATT, the binding signal in the assay with ERG was 1.53; with ELF1, 1.5; in the assay with ETV4 it was 1.51; with ETV1, 1.52; in the assay with ERF, 1.44.

Regarding GACCAA, the binding signal with ERG was 0.901; with ETV4, 0.956; in the assay with ETV1, 0.97; with ERF, 0.961.

Turning to TCAAAC, the binding signal is 1.26 with ERG, 1.23 with ETV4 and 1.29 with ETV1.

ACTGTA: the binding signal in the assay with ERG amounted to 0.965; with ETV4, 1.01; in the assay with ETV1, 1.02; in the assay with ERF it was 0.981.

Regarding TGAAAG, the binding signal was found to be 0.948 with ERG, 1.03 with ETV4, 0.985 with ETV1 and 0.972 with ERF.

As to GTACTG, the binding signal in the assay with ERG was 1.09; in the assay with ETV4, 1.05; in the assay with ETV1, 1.02; in the assay with ERF, 1.02.

For the sequence GATCTA, the binding signal in the assay with ERG worked out at 0.943; in the assay with ETV4 it was 1.04; in the assay with ETV1, 0.967; with ERF, 1.04.

Consider CGCTGT, for which the binding signal was determined as 0.947 with ERG, 0.919 in the assay with ETV4, 0.965 in the assay with ETV1 and 1.12 with ERF.

Turning to GCCCTG, the binding signal with ERG was found to be 1; in the assay with ETV4, 1.08; in the assay with ETV1 it was 0.933; in the assay with ERF, 0.896.

ACACCA: the binding signal with ERG stood at 1.01; with ETV4, 0.992; in the assay with ETV1, 0.976; in the assay with ERF, 0.988.

Take GGTTCT: the binding signal worked out at 0.911 with ERG, 1.05 in the assay with ETV4, 1.01 with ETV1 and 0.932 with ERF.

Regarding TTTCGT, the binding signal with ERG is 1.23; with ETV4, 1.29; with ETV1, 1.38; with ERF, 1.21.

On to CCAAGC, for which the binding signal in the assay with ERG worked out at 0.993; with ETV4, 1.01; with ETV1, 0.962; in the assay with ERF, 0.994.

For the sequence ACGCGC, the binding signal is 0.92 in the assay with ERG, 1.16 in the assay with ETV4, 0.997 with ETV1 and 0.968 with ERF.

Regarding GTATGA, the binding signal is 0.922 with ERG; 0.917 with ELF1; 0.996 with ETV4; 0.916 in the assay with ETV1; 0.975 with ERF.

As to TCGAAC, the binding signal with ERG came to 0.999; with ETV4, 0.986; with ETV1, 0.977; in the assay with ERF it was 1.07.

The values are drawn from article PMC7862700.
